According to article PMC6904220:

Legend:
[1] = biological target: T1, HA-Dzip1 (Drosophila Dzip1) (Drosophila melanogaster) (UniProt Q9VC70); test: co-IP; two tagged Drosophila proteins co-expressed in COS-7 or HEK293 cells; lysates precipitated with GFP-TRAP or HA-coupled beads, 1 or 2 hr at 4°C, NaCl 150 mM, Tris-HCl pH 7.2; western blot with GFP, HA or V5 antibodies
T1 sequence: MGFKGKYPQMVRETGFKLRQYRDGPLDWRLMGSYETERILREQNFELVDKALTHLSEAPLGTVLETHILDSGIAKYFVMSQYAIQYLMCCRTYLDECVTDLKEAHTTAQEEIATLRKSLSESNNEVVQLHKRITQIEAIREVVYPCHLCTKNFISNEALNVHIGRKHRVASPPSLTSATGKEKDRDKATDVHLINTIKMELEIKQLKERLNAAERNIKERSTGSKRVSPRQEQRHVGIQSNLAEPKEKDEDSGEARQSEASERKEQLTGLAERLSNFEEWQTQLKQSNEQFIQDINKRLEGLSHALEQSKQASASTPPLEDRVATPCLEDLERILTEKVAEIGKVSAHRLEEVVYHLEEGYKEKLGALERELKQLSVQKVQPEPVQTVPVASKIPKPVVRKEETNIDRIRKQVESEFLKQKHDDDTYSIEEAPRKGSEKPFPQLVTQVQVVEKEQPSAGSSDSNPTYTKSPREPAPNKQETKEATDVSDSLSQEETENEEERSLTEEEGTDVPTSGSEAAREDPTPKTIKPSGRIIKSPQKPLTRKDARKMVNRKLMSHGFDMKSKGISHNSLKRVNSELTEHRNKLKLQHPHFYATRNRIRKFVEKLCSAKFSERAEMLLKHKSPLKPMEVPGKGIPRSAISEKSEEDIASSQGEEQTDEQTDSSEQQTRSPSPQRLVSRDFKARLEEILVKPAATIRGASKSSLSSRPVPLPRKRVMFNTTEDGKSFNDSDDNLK

[2] = biological target: T2, GFP-Dzip1 (Drosophila Dzip1) (Drosophila melanogaster) (UniProt Q9VC70); test: co-IP; GFP-Dzip1, V5-Fam92 and HA-Cby co-expressed together in mammalian cells; precipitated with anti-GFP (performed once); western blot
T2 sequence: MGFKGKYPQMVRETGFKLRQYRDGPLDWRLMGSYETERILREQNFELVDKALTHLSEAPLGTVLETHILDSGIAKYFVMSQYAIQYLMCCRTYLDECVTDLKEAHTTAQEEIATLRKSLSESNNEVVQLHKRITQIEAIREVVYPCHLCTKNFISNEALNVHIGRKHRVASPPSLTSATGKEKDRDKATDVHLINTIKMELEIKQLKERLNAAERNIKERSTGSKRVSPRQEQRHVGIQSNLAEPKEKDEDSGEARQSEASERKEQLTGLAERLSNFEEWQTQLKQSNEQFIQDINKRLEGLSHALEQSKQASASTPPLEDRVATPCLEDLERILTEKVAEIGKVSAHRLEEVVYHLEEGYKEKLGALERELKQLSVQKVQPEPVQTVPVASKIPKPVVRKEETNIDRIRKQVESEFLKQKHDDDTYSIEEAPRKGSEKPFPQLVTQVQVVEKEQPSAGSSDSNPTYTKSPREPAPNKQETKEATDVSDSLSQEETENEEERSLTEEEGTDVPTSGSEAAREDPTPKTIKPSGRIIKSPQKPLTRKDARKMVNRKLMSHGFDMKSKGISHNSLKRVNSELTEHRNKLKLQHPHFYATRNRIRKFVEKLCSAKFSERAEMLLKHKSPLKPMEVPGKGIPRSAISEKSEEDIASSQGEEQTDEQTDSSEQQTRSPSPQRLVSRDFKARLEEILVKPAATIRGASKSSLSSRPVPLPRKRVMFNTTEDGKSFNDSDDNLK

[3] = biological target: Cby-GFP (Drosophila Cby) (Drosophila melanogaster); test: co-IP; two tagged Drosophila proteins co-expressed in COS-7 or HEK293 cells; lysates precipitated with GFP-TRAP or HA-coupled beads, 1 or 2 hr at 4°C, NaCl 150 mM, Tris-HCl pH 7.2; western blot with GFP, HA or V5 antibodies

- binding [1]: binds
Molecule: Cby-GFP (Drosophila Cby)

- binding [2]: binds
Molecule: HA-Cby (Drosophila Cby)

- binding [3]: binds
B1: HA-Fam92 (Drosophila Fam92) (protein, UniProt Q9VK91 1-395)
chain: MFRRGKLSFLNTKDDRVKIINERINITERHLMEMCSSFALVTRKMAKYRDSFDELAKSVKSYADDEEINESLCQGLKSFTNAVTIMGDYMDINVHRLEHKIVNELAQFEQLCKSTRDNLRLAVIARDKEVLRQRQMLELKSKFSANNSAADSELFKAKMEVQRTNKEIDDIIGNFEQRKLRDLKQIISDFILIAMKQHTKALEILSASYYDIGTIDERDDFIEFQKLMKTKEELASRKTALKKGLRSQSMDSLEHEHLVSPLKRRPKLSRSNRNLTGAGINHGSKTEPEDETDEQDEEEDDEDEETEQSGEEDEESGTATDDEREPTQPGNQVPPRENVFGAKIRSASKDIATPSTSASATSAPSKPSRQTVKHPFKAVASTHVRLQKQFHVPQH

These are yes or no findings as the source states them, for the method shown. Binding seen in cells or lysates may run through a third protein. A result given as binding can be weak or reduced; the word gives no strength. Where a sequence is shown, tags or fusion partners need not be part of it. One block for each molecule: values may come before it.
